Results are given in words; binding and its absence hold for the method and conditions named.
Biological target: monomeric 6His-V15-rCaMKIIβ (Venus-tagged kinase domain, association domain removed from residue 315) (rat) (UniProt P08413)
Test: single-molecule TIRFM (spot intensity and photobleaching steps); Venus-tagged CaMKII stock diluted >1000x in AB- buffer, immobilised on a GFP antibody-coated coverslip, unbound protein washed out, room temperature; both purified

Sequences of proteins named here, by UniProt entry; tags and fusion partners are left off. Residues count along the entry.
UniProt P08413, residues 1-314: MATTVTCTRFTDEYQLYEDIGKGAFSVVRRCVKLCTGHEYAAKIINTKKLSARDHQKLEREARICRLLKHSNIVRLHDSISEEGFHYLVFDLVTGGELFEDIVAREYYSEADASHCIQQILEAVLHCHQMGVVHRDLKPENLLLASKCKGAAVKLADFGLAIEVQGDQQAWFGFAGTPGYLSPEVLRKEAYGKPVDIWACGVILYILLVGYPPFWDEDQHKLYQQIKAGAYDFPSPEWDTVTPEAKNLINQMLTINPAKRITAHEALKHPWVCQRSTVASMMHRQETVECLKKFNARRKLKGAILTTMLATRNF

- binding: no binding
Substance: monomeric 6His-V15-rCaMKIIβ (Venus-tagged kinase domain, association domain removed from residue 315) (from UniProt P08413 1-314) (domain or fragment)

Source: article PMC11199487, “Hub stability in the calcium calmodulin-dependent protein kinase II” (Communications Biology, 2024)
